Reference: patent US7737120B2 (Aicuris GmbH & Co. KG, priority 2004, dated 2010)

Test: peptide synthesis
Conditions: late stage modification step, trifluoroacetate

Substance	step yield	step yield (run 1)	step yield (run 2)	step yield (run 3)
D-Leu-Leu-Ala(3-cyclohexyl)-[(3R)-Leu(3-OH)]-Leu-D-Arg-Ile-aThr-Gly-[(3S)-3-Asn(3-OH)]-Ser-trifluoroacetate	20% of theory	–	–	–
D-Leu-Leu-Phe-[(3R)-Leu(3-OH)]-Leu-D-Arg-Ile-aThr-Gly-[(3S)-3-Asn(3-OH)]-Ser-trifluor-oacetate	–	31% of theory	33% of theory	27% of theory
